Test results: publication doi:10.1101/078337
These are yes or no findings as the source states them, for the method shown. Binding seen in cells or lysates may run through a third protein. Some entries that bind do so weakly or less than the wild type. For part of these data: Tags and fused reporters may be left off the sequences shown.

The chains behind the UniProt entries cited, without tags or fusion partners.
UniProt Q24311: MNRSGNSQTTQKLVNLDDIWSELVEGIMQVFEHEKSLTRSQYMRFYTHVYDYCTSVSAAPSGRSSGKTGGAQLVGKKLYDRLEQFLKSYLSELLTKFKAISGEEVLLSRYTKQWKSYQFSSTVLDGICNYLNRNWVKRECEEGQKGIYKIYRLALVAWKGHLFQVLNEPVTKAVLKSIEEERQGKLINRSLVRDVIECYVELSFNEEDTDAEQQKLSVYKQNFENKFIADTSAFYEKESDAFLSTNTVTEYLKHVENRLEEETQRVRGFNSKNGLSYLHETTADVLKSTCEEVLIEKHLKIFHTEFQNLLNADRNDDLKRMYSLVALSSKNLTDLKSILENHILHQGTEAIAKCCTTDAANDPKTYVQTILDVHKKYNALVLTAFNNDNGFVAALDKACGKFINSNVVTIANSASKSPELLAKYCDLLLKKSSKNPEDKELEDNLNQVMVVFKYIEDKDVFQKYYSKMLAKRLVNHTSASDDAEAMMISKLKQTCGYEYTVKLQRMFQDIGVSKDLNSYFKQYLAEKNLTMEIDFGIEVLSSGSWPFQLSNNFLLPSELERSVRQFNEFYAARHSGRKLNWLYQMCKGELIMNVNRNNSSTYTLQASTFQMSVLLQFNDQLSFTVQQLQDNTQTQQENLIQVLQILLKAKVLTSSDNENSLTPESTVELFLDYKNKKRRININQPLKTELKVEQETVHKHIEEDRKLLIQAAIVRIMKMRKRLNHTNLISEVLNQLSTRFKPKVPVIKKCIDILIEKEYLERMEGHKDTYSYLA
UniProt O77430: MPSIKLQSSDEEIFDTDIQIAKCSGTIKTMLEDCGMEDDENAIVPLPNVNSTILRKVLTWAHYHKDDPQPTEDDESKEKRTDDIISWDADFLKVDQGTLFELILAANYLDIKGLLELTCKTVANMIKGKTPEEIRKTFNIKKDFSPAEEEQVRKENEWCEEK
UniProt Q9Y297: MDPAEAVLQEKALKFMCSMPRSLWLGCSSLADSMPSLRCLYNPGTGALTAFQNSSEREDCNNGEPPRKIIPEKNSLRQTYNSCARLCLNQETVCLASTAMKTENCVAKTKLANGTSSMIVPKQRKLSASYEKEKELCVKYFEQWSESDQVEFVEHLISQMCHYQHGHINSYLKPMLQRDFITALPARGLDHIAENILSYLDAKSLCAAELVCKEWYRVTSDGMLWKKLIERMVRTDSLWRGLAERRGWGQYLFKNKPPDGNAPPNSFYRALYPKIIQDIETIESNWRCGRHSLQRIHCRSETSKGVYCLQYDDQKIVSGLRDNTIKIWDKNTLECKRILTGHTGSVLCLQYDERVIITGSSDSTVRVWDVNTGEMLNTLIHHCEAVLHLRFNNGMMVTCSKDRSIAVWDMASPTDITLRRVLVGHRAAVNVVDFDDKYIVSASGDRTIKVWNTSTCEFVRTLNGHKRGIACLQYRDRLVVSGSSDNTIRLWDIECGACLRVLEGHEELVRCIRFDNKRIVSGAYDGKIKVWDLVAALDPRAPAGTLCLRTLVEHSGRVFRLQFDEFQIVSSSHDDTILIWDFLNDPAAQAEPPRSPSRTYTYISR
UniProt Q9UKB1: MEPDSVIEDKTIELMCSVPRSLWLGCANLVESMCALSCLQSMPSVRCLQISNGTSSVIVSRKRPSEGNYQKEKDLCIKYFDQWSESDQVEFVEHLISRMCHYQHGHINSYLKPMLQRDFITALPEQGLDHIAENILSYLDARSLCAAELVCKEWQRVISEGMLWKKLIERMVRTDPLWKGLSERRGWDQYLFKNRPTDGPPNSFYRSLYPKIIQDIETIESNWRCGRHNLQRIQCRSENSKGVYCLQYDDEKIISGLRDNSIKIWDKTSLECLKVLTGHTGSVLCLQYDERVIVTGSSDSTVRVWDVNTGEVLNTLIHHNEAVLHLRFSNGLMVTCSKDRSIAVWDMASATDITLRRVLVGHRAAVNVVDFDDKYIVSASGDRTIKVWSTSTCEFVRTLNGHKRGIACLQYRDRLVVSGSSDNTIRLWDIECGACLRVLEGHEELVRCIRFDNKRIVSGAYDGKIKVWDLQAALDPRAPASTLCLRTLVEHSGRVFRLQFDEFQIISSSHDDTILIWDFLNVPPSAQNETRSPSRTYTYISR
UniProt Q05856: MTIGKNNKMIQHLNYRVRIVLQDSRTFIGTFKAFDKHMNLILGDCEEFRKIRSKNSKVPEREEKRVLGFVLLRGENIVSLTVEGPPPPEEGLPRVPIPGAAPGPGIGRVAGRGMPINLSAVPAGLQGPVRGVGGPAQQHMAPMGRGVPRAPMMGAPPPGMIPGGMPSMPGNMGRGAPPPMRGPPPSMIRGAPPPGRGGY
UniProt Q16637: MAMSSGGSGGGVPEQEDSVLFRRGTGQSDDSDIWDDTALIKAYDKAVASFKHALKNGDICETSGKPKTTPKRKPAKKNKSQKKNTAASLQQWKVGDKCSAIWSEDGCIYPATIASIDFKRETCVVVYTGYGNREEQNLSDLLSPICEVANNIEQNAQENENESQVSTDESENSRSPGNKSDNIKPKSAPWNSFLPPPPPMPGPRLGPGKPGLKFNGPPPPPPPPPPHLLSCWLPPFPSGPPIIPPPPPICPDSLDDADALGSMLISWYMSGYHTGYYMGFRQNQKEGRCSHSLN

Key:
Assay in all cases: co-IP
[1] = molecular target: T1, Flag-SMN (Drosophila SMN from the Flag-Smn^WT transgene) (Drosophila melanogaster) (UniProt Q9VV74)
T1 sequence: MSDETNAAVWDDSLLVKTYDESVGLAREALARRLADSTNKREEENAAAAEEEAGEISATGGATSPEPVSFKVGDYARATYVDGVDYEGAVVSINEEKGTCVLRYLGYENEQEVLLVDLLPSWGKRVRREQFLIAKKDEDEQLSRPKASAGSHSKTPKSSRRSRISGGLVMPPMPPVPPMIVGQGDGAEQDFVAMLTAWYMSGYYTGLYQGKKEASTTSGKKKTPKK

[2] = molecular target: Drosophila Flag-Cul1 (in HEK 293T cells) (Drosophila) (UniProt Q24311)
[3] = molecular target: Drosophila Flag-SkpA (in HEK 293T cells) (Drosophila) (UniProt O77430)
[4] = molecular target: Flag-B-TrCP1 (human) (human) (UniProt Q9Y297)
[5] = molecular target: Flag-B-TrCP2 (human) (human) (UniProt Q9UKB1)
[6] = molecular target: Cul1-Flag (Drosophila Cul1, in S2 cells) (Drosophila) (UniProt Q24311)
[7] = molecular target: SkpA-Flag (Drosophila SkpA, in S2 cells) (Drosophila) (UniProt O77430)
[8] = molecular target: T2, Flag-SMN (Drosophila SMN from the Flag-Smn^WT transgene) (Drosophila melanogaster), Q9VV74; conditions: remark: other sources report otherwise
T2 chain: T1 sequence

SmB (Drosophila) (from UniProt Q05856 1-199)
binding [1]: binds

endogenous human SMN of HEK 293T cells (from UniProt Q16637 1-294)
binding [2]: binds | binding [3]: binds | binding [4]: binds | binding [5]: binds

B1: SmD3 (Drosophila) (protein, UniProt O44437 1-151)
chain: MSIGVPIKVLHEAEGHIITCETITGEVYRGKLIEAEDNMNCQMTQITVTYRDGRTANLENVYIRGSKIRFLILPDMLKNAPMFKKQTGKGLGGTAGRGKAAILRAQARGRGRGGPPGGGRGTGGPPGAPGGSGGRGAWQGGPTGGRGRGGL
binding [1]: binds

B2: endogenous SMN of Drosophila S2 cells (protein, UniProt Q9VV74 1-226)
chain: T1 sequence
binding [6]: binds | binding [7]: binds

B3: α-Actinin (Drosophila), P18091 1-917 (protein)
chain: MMMENGLSMEYGDGYMEQEEEWEREGLLDPAWEKQQKKTFTAWCNSHLRKAGTAIDNIEEDFRNGLKLMLLLEVISGETLPKPDRGKMRFHKIANVNKALDFIASKGVHLVSIGAEEIVDGNLKMTLGMIWTIILRFAIQDISVEEMTAKEGLLLWCQRKTAPYKNVNVQNFHLSFKDGLAFCALIHRHRPDLIDYAKLSKDNPLENLNTAFDVAEKYLDIPRMLDPDDLINTPKPDERAIMTYVSCYYHAFQGAQQVGNVTHVPEPTRQYTYVPNNYNAETAANRICKVLKVNQENERLMEEYERLASDLLEWIRRTMPWLNSRQADNSLAGVQKKLEEYRTYRRKHKPPRVEQKAKLETNFNTLQTKLRLSNRPAYLPTEGKTVSDISNSWKGLELAEKAFEEWLLAETMRLERLEHLAQKFKHKADAHEDWTRGKEEMLQSQDFRQCKLNELKALKKKHEAFESDLAAHQDRVEQIAAIAQELNTLEYHDCVSVNARCQRICDQWDRLGALTQRRRTALDEAERILEKIDILHLEFAKRAAPFNNWLDGTREDLVDMFIVHTMEEIQGLIQAHDQFKATLGEADKEFNLIVNLVREVESIVKQHQIPGGLENPYTTLTANDMTRKWSDVRQLVPQRDQTLANELRKQQNNEMLRRQFAEKANIVGPWIERQMDAVTAIGMGLQGSLEDQLHRLKEYEQAVYAYKPNIEELEKIHQAVQESMIFENRYTNYTMETLRVGWEQLLTSINRNINEVENQILTRDSKGISQEQLNEFRSSFNHFDKNRTGRLSPEEFKSCLVSLGYSIGKDRQGDLDFQRILAVVDPNNTGYVHFDAFLDFMTRESTDTDTAEQVIDSFRILAADKPYILPDELRRELPPDQAEYCIQRMPPYKGPNGVPGALDYMSFSTALYGETDL
binding [8]: no binding
